According to the supplement of paper PMC3334620:
The full ranking holds about 33,000 sequences; the median of “E-score (-0.5 to 0.5)” is about -0.0014, and the highest 2% start at about 0.25. The list shows a part of the results.

Molecular target: T1, Cad1 (UniProt P24813)
T1 sequence: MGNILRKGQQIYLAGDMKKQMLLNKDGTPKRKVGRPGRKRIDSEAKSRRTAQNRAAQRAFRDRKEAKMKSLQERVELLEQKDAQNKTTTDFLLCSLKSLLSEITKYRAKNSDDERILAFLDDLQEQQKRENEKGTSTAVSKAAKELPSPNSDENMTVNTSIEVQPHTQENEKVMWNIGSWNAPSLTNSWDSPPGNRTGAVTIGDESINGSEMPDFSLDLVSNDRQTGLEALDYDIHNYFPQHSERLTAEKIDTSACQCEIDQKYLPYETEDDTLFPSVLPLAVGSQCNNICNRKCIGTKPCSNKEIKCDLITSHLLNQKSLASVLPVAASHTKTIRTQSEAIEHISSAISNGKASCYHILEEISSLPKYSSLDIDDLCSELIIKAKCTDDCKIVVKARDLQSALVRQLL
Assay: PBM E-score (8-mer binding enrichment) (E-score (-0.5 to 0.5)); higher = stronger / more preferred TF binding
Conditions: protein concentration: 100 nM; construct: GST-full length
Protocol: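 Universal 'all 10-mer' protein binding microarrays (Agilent AMADID 015681) probed with GST-tagged S. cerevisiae TFs (full-length or DBD) made by in vitro transcription/translation (PURExpress), about 100-200 nM. Bound TF was detected with fluorescent anti-GST. Each ungapped 8-mer (which stands for itself and its reverse complement) is scored by the PBM enrichment score (E-score), a modified Wilcoxon-Mann-Whitney statistic from -0.5 to +0.5, computed with the Universal PBM Analysis Suite. Scale: above 0.35 generally sequence-specific binding.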

Row | Sequence | PBM E-score
1 | AGGTGTGA | -0.126
2 | CGACGCAA | 0.118
3 | TCGCCGCA | 0.0193
4 | AAGAGGGA | -0.243
5 | ATAGCAAC | 0.0425
6 | AGGCCGAT | 0.139
7 | AACTTCCA | -0.0493
8 | AATCCATT | 0.188
9 | AGCGCTGG | 0.191
10 | CAACTAGG | 0.079
11 | ATACATCC | 0.0953
12 | CAATTTCC | 0.15
13 | GATGCAGC | 0.0592
14 | CTACCTGA | -0.0406
15 | CACCAAAG | -0.00946
16 | CCGTCTTC | -0.0473
17 | AATTGCCT | 0.149
18 | ACGGAGAA | 0.0805
19 | AGACCCAT | -0.108
20 | AAGCTAAC | 0.0817
21 | ATATTGAG | 0.0195
22 | CTCCCTGA | -0.247
23 | TATGTCCA | -0.0512
24 | GCAGCAAC | 0.109
25 | CACTTTGC | -0.0211

Row | Sequence | PBM E-score
26 | CGGGAGCA | 0.0572
27 | GGTGCAGA | -0.217
28 | ATGAACCC | 0.0129
29 | AGCCAATA | -0.0761
30 | CACTCTGG | -0.115
31 | CGAGGTGA | 0.221
32 | CCATGGGG | -0.0233
33 | CACTCCCC | -0.162
34 | GGAATCTA | 0.0275
35 | AAATAGTC | -0.0981
36 | GAGAAGGC | -0.224
37 | CGTGAGTA | 0.175
38 | AAGCTCGC | 0.224
39 | AACTTGGG | -0.0849
40 | GACCGCCA | -0.111
41 | CGTACTTA | 0.179
42 | CACCACCC | -0.132
43 | ATGATCTC | -0.0469
44 | CAACCGCA | 0.066
45 | ATCTCTGC | 0.0525
46 | AACGACCG | -0.116
47 | AGATAGCG | -0.0372
48 | AGTAAATA | 0.12
49 | ATATTTTC | 0.207
50 | AAGGCCTC | -0.171

Fetched one by one from the entries so far:
Row | Sequence | PBM E-score
26 | CGGGAGCA | 0.0572
25 | CACTTTGC | -0.0211
39 | AACTTGGG | -0.0849
22 | CTCCCTGA | -0.247
19 | AGACCCAT | -0.108

Going on with the list.

Row | Sequence | PBM E-score
51 | ACGCTGTC | -0.187
52 | CTGCACAC | -0.0494
53 | ACTCAAGA | -0.193
54 | CTGGGCCC | -0.23
55 | CTACGAGC | -0.131
56 | CCTAGTCG | -0.118
57 | GTTTGCAA | 0.0869
58 | AGGTTGTC | -0.0912
59 | CGACGCTC | 0.129
60 | AATGCCCC | -0.238
61 | ACACTAGT | 0.115
62 | CGATTCGA | 0.213
63 | CCGCGCAA | 0.0795
64 | AACAATGT | 0.101
65 | ATTTACTG | 0.0117
66 | ATGGCTTG | -0.0675
67 | AACCTGTG | -0.0443
68 | AATTGGGA | 0.056
69 | TAACGCTA | -0.0198
70 | CCCGTACA | -0.313
71 | ACGCTTCT | -0.202
72 | GTACCAGA | -0.0155
73 | CAAATATC | 0.261
74 | GATAGCTA | 0.0144
75 | CGACTGAC | -0.175

Row | Sequence | PBM E-score
76 | CACGCCCC | -0.201
77 | ATACGCAG | -0.0837
78 | ATCACTCC | -0.127
79 | ATCTCGTG | -0.0129
80 | ATTCCCCC | -0.219
81 | TGGTTTAA | 0.0972
82 | CAATCTTC | 0.035
83 | GCCAACAC | 0.1
84 | GAGCTGGA | -0.0498
85 | GTGCAGTA | 0.00821
86 | AAGTCGAG | 0.0276
87 | CTGGCGAA | 0.0604
88 | CCACAGGG | -0.243
89 | AGTTGAGC | 0.0736
90 | AGAAGGTA | 0.103
91 | CGTGGTCC | -0.117
92 | CCTATGAC | -0.0855
93 | CGATGTCC | 0.0702
94 | AAAATGCT | 0.181
95 | ATCAGTGA | 0.0672
96 | GGAGTTAA | -0.0416
97 | GGAAACTA | -0.0839
98 | ATTTCGCG | 0.154
99 | AACTCTGC | -0.134
100 | AAGTTGGG | -0.0322

Row | Sequence | PBM E-score
101 | TACCTCTA | -0.053
102 | CTCCGAGA | 0.0924
103 | CAGGGAGA | -0.178
104 | ACGACGGA | 0.104
105 | TCATGCGA | 0.0455
106 | CGAGGCAG | 0.0833
107 | ATTTCAAC | 0.138
108 | ATCTGAGC | 0.0656
109 | CTGAGATC | -0.13
110 | AGAAGGAC | -0.0683
111 | GAAAACTC | 0.0662
112 | ATTCGTTC | 0.09
113 | GAAAATAA | 0.201
114 | CATTGCTC | 0.0163
115 | ACCAGGTG | -0.199
116 | GAGACCCA | -0.00488
117 | AACTAAGC | 0.187
118 | GTTCATTA | -0.0226
119 | GTTTAGAA | -0.0176
120 | CAGTCTTA | -0.0842
121 | GGCCCGCC | -0.23
122 | ATGAGACG | -0.0991
123 | TGAGCCCA | -0.0193
124 | ACAGAGGA | -0.109
125 | ACGGATCG | 0.0381

Single entries from above:
PBM E-score, ATATTTTC reads 0.207
PBM E-score, GGAGTTAA reads -0.0416
PBM E-score, CTACCTGA reads -0.0406
PBM E-score, ACCAGGTG reads -0.199
PBM E-score, AACTCTGC reads -0.134

Carrying on.

Row | Sequence | PBM E-score
126 | AGACCCCA | -0.12
127 | ACCGGAGG | -0.114
128 | GATCAGCA | 0.141
129 | TAAATCAA | 0.171
130 | AGACCCGC | 0.0282
131 | AGGATCGG | -0.232
132 | AATAAAGC | 0.104
133 | GAAATCAA | -0.0157
134 | CAGTTCGC | 0.0307
135 | CGATAGAA | 0.0369
136 | CTTGGCGC | 0.0227
137 | CATATTGG | 0.106
138 | AGGTTCTA | -0.18
139 | ATCCACGA | 0.0701
140 | CAAGCAGC | -0.109
141 | GAGGGGGC | -0.431
142 | ATACGCCC | -0.104
143 | CATTACTA | 0.25
144 | CACTGTAA | 0.00669
145 | CTGACACA | 0.156
146 | ATGTTCAG | -0.0415
147 | ATAAGAAG | 0.0392
148 | ACAAGAGT | -0.128
149 | GCTCCGGA | 0.0259
150 | CGCGTCTA | 0.186

Row | Sequence | PBM E-score
151 | AGCAACAG | 0.0501
152 | ACGTATTG | 0.00371
153 | GCACGGAC | 0.164
154 | TGCTTACA | 0.235
155 | ACGGTCTA | -0.114
156 | AACCCAGC | -0.0145
157 | GCCTATAA | -0.13
158 | GCGGACAC | 0.159
159 | CAACCCCG | -0.255
160 | CGAACTCC | 0.0429
161 | GCCTCAGA | -0.0698
162 | AATTGTCT | 0.0333
163 | TACCGATA | 0.102
164 | AGGGTTGG | 0.0919
165 | CAATTTTA | 0.27
166 | GCTCCGTA | -0.034
167 | AGCTCCCG | -0.329
168 | CATTCAAA | 0.212
169 | ATATATAC | 0.317
170 | GTAGGAAA | -0.0132
171 | AACCAGGG | -0.176
172 | TATATCCA | 0.0658
